Measurements: patent US20210332123A1 (SUZHOU KANOVA BIOPHARMACEUTICAL, published 2021)
These are yes or no findings as the source states them, for the method shown. Some entries that bind do so weakly or less than the wild type.

B1: murine anti-IL-25 monoclonal antibody 18H3 (antibody, V domains shown)
VH: QVTLKESGPGILQPSQTLSLTCSFSGFSLSTSGMGLGWIRQPSGKGLEWLAHIWWDDVKHYKPALKSRLTISKDISSSQVFLTIASVDTADTATYYCARMGQLHYYGYDYAMDYWGQGTSVTVSS
VL: QIVLTQSPAIMSASPGEKVTISCSASSSVSYMYWYQQKPGSSPKPWIYRTSNLASGVPARFSGSGSGTSYSLTISSMEAEDAATYYCQLYHSYPPTWTFGGGTKLEIK
notes: also called parental antibody; parental murine mAb
B2: VH1-1 + VL2-1 (humanized anti-IL-25 antibody formed by VH1-1 and VL2-1) (antibody, V domains shown)
VH: QVTLKESGPTLVKPTQTLTLTCTFSGFSLSTSGMGLGWIRQPPGKALEWLAHIWWDDVKHYKPALKSRLTITKDTSKNQVVLTMTNVDPVDTATYYCARMGQLHYYGYDYAMDYWGQGTLVTVSS
VL: DIQLTQSPSFLSASVGDRVTITCSASSSVSYMYWYQQKPGKAPKPLIYRTSNLASGVPSRFSGSGSGTEYTLTISSMQPEDFATYYCQLYHSYPPTWTFGQGTKLEIK
B3: VH2-1 + VL1-2 (humanized anti-IL-25 antibody formed by VH2-1 and VL1-2) (antibody, V domains shown)
VH: QVTLRESGPALLKPTQTLTLTCTFSGFSLSTSGMGLGWIRQPPGKALEWLAHIWWDDVKHYKPALKSRLTISKDTSKNQVVLTITNVDPVDTATYYCARMGQLHYYGYDYAMDYWGQGTLVTVSS
VL: EIVLTQSPATLSASPGERVTISCSASSSVSYMYWYQQKPGQAPRPLIYRTSNLASGVPARFSGSGSGTDYTLTISSMEPEDFATYYCQLYHSYPPTWTFGQGTKLEIK

How the values were obtained:
[1] = molecular target: T1, cynomolgus IL-25 (cynomolgus, UniProt G7P9V9 33-176); assay: ELISA (FIG. 4)
T1 construct: In-house production
T1 sequence: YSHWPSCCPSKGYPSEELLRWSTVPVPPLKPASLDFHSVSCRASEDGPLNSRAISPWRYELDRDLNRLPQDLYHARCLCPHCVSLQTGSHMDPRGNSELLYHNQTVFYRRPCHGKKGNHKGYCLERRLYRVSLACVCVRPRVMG

[2] = molecular target: T1, cynomolgus IL-25; assay: ELISA, plate coated with cynomolgus IL-25

Binder	binding [1]	binding [2]
B1	binds	binds
B2	binds	binds
B3	binds	binds
